This passage reports On/off ratio and Threshold voltage results from US9564604B2, “Fused polycyclic aromatic compounds, organic semiconductor material and thin film including the same, and method for producing an organic semiconductor device” (Nippon Kayaku Kabushiki Kaisha, priority 2012, dated 2017).

The series can be described thus: Evaluation of FET characteristics (top-contact FET device, in atmosphere). The settings on record: channel length 50 μm, width 1.5 mm, 101 vacuum deposited, 110 and 112 spin coated.

`CCCCCCCCc1cc2c(=C(C#N)C#N)cc3c(cc(=C(C#N)C#N)c4cc(CCCCCCCC)sc43)c2s1` [Compound 110]: the On/off ratio is 10^3 and the Threshold voltage amounted to 0.7 V.

With `CCCCCCCCCCCCc1cc2c(=C(C#N)C#N)cc3c(cc(=C(C#N)C#N)c4cc(CCCCCCCCCCCC)sc43)c2s1` [Compound 112], the On/off ratio is given as 10^4 and the Threshold voltage was 1.2 V.
